Laboratory results published in the supplement of paper PMC10849652.
This is one part of the list. Residues, ends and D or L forms follow the SMILES beside them. *: point of attachment. Cbz = O=C(OCc1ccccc1)*

Chains of the proteins cited; added tags and fusions are not shown. Lines headed by an entry give the natural chain unless they say otherwise; changes in a name come on top.
UniProt Q8TB52: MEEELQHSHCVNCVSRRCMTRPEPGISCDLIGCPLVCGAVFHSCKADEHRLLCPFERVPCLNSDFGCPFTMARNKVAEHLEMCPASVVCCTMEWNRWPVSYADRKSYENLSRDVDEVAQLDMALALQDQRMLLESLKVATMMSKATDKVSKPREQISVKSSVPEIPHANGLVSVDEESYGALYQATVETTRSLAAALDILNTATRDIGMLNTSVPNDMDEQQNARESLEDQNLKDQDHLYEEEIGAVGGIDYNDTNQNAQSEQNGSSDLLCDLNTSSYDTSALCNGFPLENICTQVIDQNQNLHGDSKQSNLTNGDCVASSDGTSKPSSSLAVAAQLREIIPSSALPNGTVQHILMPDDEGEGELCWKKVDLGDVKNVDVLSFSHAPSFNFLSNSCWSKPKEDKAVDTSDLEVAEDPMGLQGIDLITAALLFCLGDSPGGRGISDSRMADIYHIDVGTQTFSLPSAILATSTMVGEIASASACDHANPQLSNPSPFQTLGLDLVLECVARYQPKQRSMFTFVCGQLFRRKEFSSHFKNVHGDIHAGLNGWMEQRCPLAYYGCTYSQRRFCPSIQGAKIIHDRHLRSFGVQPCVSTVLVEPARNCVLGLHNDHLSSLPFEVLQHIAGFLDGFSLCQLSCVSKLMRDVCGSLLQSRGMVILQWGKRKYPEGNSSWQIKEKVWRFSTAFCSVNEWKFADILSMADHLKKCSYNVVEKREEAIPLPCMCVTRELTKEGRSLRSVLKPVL
UniProt Q9UK99: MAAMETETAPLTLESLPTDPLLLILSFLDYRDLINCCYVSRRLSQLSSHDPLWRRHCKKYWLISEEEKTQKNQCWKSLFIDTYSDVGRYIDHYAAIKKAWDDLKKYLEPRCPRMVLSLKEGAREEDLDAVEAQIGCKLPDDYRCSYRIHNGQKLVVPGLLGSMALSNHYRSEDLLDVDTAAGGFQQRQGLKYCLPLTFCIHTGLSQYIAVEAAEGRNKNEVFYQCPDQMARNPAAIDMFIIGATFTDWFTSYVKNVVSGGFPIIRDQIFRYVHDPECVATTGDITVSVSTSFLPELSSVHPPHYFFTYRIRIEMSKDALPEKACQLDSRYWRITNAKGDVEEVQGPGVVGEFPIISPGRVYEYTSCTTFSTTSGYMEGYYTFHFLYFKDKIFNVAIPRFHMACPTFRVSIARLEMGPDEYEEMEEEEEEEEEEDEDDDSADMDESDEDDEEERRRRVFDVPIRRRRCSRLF
UniProt Q53R41: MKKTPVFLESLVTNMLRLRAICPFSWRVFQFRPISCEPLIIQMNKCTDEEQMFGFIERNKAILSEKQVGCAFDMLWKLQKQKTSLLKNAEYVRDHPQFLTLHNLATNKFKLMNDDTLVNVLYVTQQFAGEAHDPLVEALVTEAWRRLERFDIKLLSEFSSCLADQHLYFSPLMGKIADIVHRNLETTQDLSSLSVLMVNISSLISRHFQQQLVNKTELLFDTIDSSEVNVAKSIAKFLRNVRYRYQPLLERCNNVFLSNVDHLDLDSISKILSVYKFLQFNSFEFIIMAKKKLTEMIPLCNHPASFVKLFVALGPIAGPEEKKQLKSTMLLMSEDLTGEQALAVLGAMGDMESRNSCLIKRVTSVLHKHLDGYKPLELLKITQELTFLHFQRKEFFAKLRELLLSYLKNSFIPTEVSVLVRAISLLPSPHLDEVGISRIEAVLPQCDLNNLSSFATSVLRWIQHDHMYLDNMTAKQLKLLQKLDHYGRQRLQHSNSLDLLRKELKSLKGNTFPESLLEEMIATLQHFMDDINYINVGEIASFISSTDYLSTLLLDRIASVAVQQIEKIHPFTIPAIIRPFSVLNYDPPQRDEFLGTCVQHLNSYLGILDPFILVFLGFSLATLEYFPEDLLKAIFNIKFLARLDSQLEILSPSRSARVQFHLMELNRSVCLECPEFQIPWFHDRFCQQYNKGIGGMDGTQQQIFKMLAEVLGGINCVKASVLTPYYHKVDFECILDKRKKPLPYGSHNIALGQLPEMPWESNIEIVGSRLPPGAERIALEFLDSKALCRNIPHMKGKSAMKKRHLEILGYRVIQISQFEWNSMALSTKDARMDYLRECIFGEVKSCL
UniProt Q96ND0: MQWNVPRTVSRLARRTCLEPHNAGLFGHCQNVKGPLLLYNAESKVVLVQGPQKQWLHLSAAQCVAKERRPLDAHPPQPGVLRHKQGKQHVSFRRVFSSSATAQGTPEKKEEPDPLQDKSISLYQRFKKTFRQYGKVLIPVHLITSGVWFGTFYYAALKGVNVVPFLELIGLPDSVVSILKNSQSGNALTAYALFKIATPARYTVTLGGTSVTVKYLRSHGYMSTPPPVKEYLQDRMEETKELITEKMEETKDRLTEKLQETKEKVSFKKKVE
UniProt Q14318: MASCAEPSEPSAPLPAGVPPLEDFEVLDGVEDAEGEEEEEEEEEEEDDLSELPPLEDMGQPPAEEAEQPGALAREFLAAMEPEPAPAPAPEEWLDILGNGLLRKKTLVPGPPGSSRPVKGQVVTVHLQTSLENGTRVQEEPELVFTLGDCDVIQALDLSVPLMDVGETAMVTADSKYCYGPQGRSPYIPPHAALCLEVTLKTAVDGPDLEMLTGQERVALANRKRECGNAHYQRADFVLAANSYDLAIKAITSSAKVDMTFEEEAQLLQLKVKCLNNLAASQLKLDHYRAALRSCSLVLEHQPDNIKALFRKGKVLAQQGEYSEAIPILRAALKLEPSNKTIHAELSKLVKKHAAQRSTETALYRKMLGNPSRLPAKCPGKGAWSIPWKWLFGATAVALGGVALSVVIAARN
UniProt O75955: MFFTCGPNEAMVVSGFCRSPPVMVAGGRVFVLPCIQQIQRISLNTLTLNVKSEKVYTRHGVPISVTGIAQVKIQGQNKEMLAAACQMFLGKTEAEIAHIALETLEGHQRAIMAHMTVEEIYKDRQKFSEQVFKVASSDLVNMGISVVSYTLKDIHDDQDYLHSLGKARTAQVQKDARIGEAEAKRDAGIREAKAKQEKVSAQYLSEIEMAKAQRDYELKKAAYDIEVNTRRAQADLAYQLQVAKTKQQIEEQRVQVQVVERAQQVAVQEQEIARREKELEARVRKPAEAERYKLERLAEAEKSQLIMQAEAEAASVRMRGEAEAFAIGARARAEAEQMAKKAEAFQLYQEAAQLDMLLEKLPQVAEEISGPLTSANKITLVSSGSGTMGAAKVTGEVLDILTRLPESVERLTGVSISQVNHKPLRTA
UniProt P10109: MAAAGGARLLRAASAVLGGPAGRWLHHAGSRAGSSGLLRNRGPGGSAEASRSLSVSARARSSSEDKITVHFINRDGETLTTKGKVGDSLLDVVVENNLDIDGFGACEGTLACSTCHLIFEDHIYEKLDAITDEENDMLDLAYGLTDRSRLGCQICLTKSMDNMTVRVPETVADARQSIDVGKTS
UniProt Q13642: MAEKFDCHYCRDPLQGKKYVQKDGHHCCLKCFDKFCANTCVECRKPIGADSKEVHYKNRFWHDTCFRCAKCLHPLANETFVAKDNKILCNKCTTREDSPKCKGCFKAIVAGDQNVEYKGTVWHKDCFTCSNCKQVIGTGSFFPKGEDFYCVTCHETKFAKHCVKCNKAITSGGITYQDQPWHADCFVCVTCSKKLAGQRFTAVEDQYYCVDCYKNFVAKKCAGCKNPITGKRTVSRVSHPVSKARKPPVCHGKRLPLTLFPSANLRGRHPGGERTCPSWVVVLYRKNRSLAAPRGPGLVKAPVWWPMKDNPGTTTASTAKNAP
UniProt P22830: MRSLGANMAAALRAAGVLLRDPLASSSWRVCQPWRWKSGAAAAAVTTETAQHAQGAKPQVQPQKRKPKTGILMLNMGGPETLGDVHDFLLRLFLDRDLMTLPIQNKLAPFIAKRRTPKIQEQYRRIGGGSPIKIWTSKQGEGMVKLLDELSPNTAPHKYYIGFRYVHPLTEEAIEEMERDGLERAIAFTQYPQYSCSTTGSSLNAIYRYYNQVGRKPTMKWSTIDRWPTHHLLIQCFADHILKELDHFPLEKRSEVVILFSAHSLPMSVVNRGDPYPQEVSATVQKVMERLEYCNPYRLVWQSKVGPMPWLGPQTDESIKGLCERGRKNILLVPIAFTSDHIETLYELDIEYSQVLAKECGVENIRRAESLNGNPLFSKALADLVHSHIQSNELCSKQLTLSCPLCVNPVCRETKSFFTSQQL
UniProt Q8WU58: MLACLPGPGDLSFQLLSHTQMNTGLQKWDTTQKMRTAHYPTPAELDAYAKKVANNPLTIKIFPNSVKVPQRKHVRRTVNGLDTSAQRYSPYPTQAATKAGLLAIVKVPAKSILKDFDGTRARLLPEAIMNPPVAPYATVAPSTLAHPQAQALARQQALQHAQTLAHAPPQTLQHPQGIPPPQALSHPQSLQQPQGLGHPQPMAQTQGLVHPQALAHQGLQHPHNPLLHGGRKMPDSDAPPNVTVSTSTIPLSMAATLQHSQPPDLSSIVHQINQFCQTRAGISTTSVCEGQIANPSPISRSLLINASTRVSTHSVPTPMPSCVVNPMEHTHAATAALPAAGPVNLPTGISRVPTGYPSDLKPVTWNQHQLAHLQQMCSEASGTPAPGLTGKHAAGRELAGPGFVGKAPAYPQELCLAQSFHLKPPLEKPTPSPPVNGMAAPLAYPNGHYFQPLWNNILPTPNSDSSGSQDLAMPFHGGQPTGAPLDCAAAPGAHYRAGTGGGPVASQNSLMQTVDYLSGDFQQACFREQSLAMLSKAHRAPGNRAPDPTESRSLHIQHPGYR
UniProt P02675: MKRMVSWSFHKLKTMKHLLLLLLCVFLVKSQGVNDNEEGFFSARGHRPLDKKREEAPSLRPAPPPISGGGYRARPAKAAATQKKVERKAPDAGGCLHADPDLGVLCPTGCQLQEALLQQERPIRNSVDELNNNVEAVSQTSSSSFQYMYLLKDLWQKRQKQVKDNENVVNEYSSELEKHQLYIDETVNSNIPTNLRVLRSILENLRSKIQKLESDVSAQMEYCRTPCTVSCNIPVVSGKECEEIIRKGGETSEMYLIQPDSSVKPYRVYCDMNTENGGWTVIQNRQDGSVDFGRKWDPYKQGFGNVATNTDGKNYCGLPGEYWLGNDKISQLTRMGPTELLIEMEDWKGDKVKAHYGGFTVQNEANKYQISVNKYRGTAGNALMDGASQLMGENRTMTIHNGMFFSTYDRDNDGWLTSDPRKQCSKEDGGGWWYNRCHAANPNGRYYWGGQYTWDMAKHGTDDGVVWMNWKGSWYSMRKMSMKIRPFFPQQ
UniProt Q9NVI1: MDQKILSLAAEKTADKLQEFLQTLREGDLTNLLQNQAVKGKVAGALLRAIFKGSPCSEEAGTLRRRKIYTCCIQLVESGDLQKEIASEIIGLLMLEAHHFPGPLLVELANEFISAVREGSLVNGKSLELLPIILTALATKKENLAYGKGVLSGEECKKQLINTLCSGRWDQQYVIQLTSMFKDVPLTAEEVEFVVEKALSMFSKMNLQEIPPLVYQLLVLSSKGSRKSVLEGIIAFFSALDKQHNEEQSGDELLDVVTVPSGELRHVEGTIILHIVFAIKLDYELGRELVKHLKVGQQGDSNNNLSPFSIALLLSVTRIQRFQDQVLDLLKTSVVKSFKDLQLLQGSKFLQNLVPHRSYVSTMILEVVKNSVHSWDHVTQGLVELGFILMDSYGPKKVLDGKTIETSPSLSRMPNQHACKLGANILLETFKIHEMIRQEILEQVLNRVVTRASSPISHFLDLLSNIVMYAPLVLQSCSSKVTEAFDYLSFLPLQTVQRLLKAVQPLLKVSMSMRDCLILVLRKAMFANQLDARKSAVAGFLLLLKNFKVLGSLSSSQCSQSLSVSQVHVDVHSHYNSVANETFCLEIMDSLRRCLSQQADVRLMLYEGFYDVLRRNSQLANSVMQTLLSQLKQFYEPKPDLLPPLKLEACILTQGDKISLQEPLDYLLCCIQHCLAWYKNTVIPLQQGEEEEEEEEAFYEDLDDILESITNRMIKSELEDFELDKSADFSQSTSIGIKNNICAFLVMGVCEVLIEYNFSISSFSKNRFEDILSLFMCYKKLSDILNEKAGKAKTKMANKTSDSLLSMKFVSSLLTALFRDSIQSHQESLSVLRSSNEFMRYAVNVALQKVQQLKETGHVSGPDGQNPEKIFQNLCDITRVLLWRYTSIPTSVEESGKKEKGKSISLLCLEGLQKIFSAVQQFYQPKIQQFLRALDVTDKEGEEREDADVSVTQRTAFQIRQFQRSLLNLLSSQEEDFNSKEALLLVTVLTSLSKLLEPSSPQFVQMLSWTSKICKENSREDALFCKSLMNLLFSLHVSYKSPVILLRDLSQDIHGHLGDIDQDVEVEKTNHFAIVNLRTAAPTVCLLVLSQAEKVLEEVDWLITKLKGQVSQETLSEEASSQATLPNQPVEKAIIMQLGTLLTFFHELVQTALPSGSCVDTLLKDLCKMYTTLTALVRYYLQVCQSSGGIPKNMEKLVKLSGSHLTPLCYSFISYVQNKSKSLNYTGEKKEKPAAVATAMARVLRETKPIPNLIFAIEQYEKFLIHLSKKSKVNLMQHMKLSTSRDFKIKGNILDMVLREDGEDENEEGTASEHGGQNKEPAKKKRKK

Assays:
Assay in all cases: log2 fold change, soluble protein after heating vs DMSO (PISA); higher = thermal stabilisation; K562 cells, 10 uM, 30 min; active = over 0.2 and 3.5 SD of the protein, either way, in both replicates (recomputed)
[1] = compound: C#Cc1cccc(Nc2ncnc3cc(OCCOC)c(OCCOC)cc23)c1 [erlotinib]
Procedure, shortened: (§1)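 Soluble protein was defined as the supernatant after 21,000xg for 90 min. It came from K562 cells at 2×10^6 cells/mL given 10 μM compound for 30 min, heated in aliquots for 3 min across 48°C-58°C, pooled, and extracted in PBS with 0.5% NP-40 at 4°C, and was quantified by TMTpro 16plex LC-MS/MS with equalised channel sums. Thermal stability against control samples, from duplicates, is reported as log2 fold change.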

[2] = compound: C/C(=N\NC(=O)C1=CC(=CC=C1)S(=O)(=O)N2CCOCC2)/C3=C(C=CC(=C3)Cl)O
Procedure, shortened: as §1

[3] = compound: C1=CC(=C(C=C1Cl)C2=NC3=NC=CN=C3C(=N2)NC4=CC=NC=C4)F
Procedure, shortened: as §1

[4] = compound: C1=CC(=CC=C1C2=NC3=C(N2)C=C(C=C3)C(=O)N)OC4=CC=C(C=C4)Cl
Procedure, shortened: as §1

[5] = compound: C1=CC2=C(C=CC(=C2)/C=C\3/C(=O)NC(=NCC4=CC=CS4)S3)N=C1
Procedure, shortened: as §1

[6] = compound: C1=CC2=NC=CN=C2C=C1/C=C/3\C(=O)NC(=O)S3
Procedure, shortened: as §1

[7] = compound: C1=CC=C(C=C1)C2=NC(=C(N2)C3=CC=NC=C3)C4=CC(=C(C=C4)Cl)O
Procedure, shortened: as §1

[8] = compound: C1=CC=C2C(=C1)C3=NNC4=CC=CC(=C43)C2=O
Procedure, shortened: as §1

[9] = compound: C1CCN(C1)C(=O)NC2=CC=CC(=C2)NC3=NC=C(C(=N3)NCCC4=CN=CN4)Br
Procedure, shortened: as §1

[10] = compound: C1CN(CCC1(CC2=CC=C(C=C2)Cl)N)C3=NC=NC4=C3C=CN4
Procedure, shortened: as §1

[11] = compound: C1COCCN1CCN2C3=CC=CC=C3N=C2NC(=O)C4=CC(=CC=C4)[N+](=O)[O-] [IRAK-1-4 Inhibitor I]
Procedure, shortened: as §1

[12] = compound: C=CC(=O)N1CCC[C@@H](n2nc(-c3ccc(Oc4ccccc4)cc3)c3c(N)ncnc32)C1 [ibrutinib]
Procedure, shortened: as §1

[13] = compound: CC(=O)c1cnc2ccc(-c3cc(Cl)c(O)c(Cl)c3)nc2c1N[C@H]1CC[C@H](CN(C)C)CC1
Procedure, shortened: as §1

[14] = compound: CC(C)(C)Cn1c(N)nc2ccc(-c3[nH]c(C(C)(C)C)nc3-c3ccc(F)cc3)nc21 [ralimetinib]
Procedure, shortened: as §1

[15] = compound: CC(C)(O)CC(=O)NCCn1ccc2ncnc(Nc3ccc(Oc4cccc(C(F)(F)F)c4)c(Cl)c3)c21
Procedure, shortened: as §1

[16] = compound: CC(C)C1=C2N=C(C=C(N2N=C1)NCC3=CC=CC=C3)NCCCCCCN
Procedure, shortened: as §1

[17] = compound: CC(C)C[C@@H](C=O)NC(=O)[C@H](CC(C)C)NC(=O)[C@H](CC(C)C)NC(=O)OCc1ccccc1
Procedure, shortened: as §1

[18] = compound: CC(C)N(C[C@H]1O[C@@H](n2cnc3c(N)ncnc32)[C@H](O)[C@@H]1O)[C@H]1C[C@@H](CCc2nc3cc(C(C)(C)C)ccc3[nH]2)C1 [pinometostat]
Procedure, shortened: as §1

[19] = compound: CC1=C(C(CC(=O)N1)C2=CC=C(C=C2)C(F)(F)F)C(=O)NC3=C(C=C4C(=C3)C=NN4)F
Procedure, shortened: as §1

[20] = compound: CC1=C(C2=C(C=C1)C(=O)C3=CC=CC=C3N2CCCN)C
Procedure, shortened: as §1

Measured: log2 fold change

FN1 isoform 1 (UniProt P02751)
inactive: [1] -0.114 | [2] -0.108 | [3] -0.022 | [4] 0.097 | [5] 0.092 | [6] -0.014 | [7] 0.044 | [8] -0.112 | [9] 0.06 | [10] 0.069 | [11] 0.02 | [12] 0.119 | [13] 0.037 | [14] -0.097 | [15] 0.133 | [16] 0.104 | [17] 0.075 | [18] -0.059 | [19] 0.03 | [20] -0.082

FBXO30 (UniProt Q8TB52)
inactive: [1] 0.063 | [2] 0.02 | [3] -0.008 | [4] 0.021 | [5] 0.04 | [6] -0.042 | [7] 0.034 | [8] 0.06 | [9] -0.019 | [10] 0.059 | [11] 0.014 | [12] 0.025 | [13] -0.041 | [14] 0.013 | [15] -0.111 | [16] -0.069 | [17] -0.026 | [18] 0.029 | [19] -0.039 | [20] 0.052

FBXO3 (UniProt Q9UK99)
inactive: [1] 0.01 | [2] 0.044 | [3] 0.141 | [4] -0.018 | [5] -0.038 | [6] 0.062 | [7] 0.112 | [8] -0.003 | [9] -0.029 | [10] 0.002 | [11] 0.038 | [12] -0.003 | [13] -0.008 | [14] 0.171 | [15] 0.021 | [16] -0.014 | [17] 0.031 | [18] 0 | [20] -0.047

FASTKD1 (UniProt Q53R41)
inactive: [1] 0.207 | [2] 0.219 | [3] 0.142 | [4] -0.051 | [5] -0.072 | [6] -0.033 | [7] 0.281 | [8] 0.093 | [9] -0.108 | [10] -0.014 | [11] 0.016 | [12] -0.186 | [13] -0.043 | [14] 0.013 | [15] -0.316 | [16] -0.047 | [17] 0.116 | [18] 0.038 | [20] 0.2

FBXL18 isoform 4 (UniProt Q96ME1)
inactive: [1] -0.035 | [2] 0.03 | [3] 0.053 | [4] 0.026 | [5] 0.014 | [6] 0.003 | [7] -0.01 | [8] 0.033 | [9] -0.069 | [10] 0.013 | [11] 0.055 | [12] -0.061 | [13] -0.004 | [14] -0.038 | [15] -0.065 | [16] -0.039 | [17] 0 | [18] 0.029 | [19] 0.037 | [20] 0.045

Taken from the entries so far (2 entries):
FBXO30 (UniProt Q8TB52)
inactive: [1] 0.063 | [2] 0.02 | [3] -0.008 | [4] 0.021 | [5] 0.04 | [6] -0.042 | [7] 0.034 | [8] 0.06 | [9] -0.019 | [10] 0.059 | [11] 0.014 | [12] 0.025 | [13] -0.041 | [14] 0.013 | [15] -0.111 | [16] -0.069 | [17] -0.026 | [18] 0.029 | [19] -0.039 | [20] 0.052

FBXO3 (UniProt Q9UK99)
inactive: [1] 0.01 | [2] 0.044 | [3] 0.141 | [4] -0.018 | [5] -0.038 | [6] 0.062 | [7] 0.112 | [8] -0.003 | [9] -0.029 | [10] 0.002 | [11] 0.038 | [12] -0.003 | [13] -0.008 | [14] 0.171 | [15] 0.021 | [16] -0.014 | [17] 0.031 | [18] 0 | [20] -0.047

(further entries)

FDX2 (UniProt Q6P4F2)
inactive: [1] 0.1 | [2] 0.017 | [3] -0.081 | [4] -0.043 | [5] 0.061 | [6] 0.07 | [7] -0.017 | [8] -0.037 | [9] -0.035 | [10] -0.119 | [11] 0.116 | [12] 0.042 | [13] -0.08 | [14] -0.099 | [15] -0.048 | [16] 0.084 | [17] 0.062 | [18] -0.059 | [19] 0.09 | [20] 0.061

FAM210A (UniProt Q96ND0)
inactive: [1] 0.072 | [2] -0.054 | [3] -0.058 | [4] 0.013 | [5] 0.012 | [6] -0.015 | [7] 0.017 | [8] -0.008 | [9] -0.015 | [10] -0.01 | [11] 0.041 | [12] 0.072 | [13] -0.021 | [14] -0.045 | [15] 0.006 | [16] 0.078 | [17] -0.002 | [18] -0.029 | [19] -0.015 | [20] -0.067

FLII (UniProt Q13045)
inactive: [1] 0.012 | [2] 0.038 | [3] -0.006 | [4] 0.015 | [5] 0.009 | [6] 0.018 | [7] -0.021 | [8] -0.018 | [9] 0.037 | [10] -0.05 | [11] -0.032 | [12] -0.017 | [13] 0.035 | [14] 0.027 | [15] -0.016 | [16] -0.047 | [17] 0.017 | [18] 0.016 | [19] -0.02 | [20] -0.049

FKBP8 isoform 2 (UniProt Q14318)
inactive: [1] 0.02 | [2] 0.037 | [3] -0.238 | [4] 0.017 | [5] 0 | [6] -0.092 | [7] 0.038 | [8] 0.061 | [9] -0.096 | [10] -0.133 | [11] -0.15 | [12] -0.004 | [13] 0.045 | [14] 0.239 | [15] 0 | [16] -0.129 | [17] 0.029 | [18] 0.251 | [19] 0.104 | [20] 0.034

FLOT1 (UniProt O75955)
inactive: [1] -0.083 | [2] -0.024 | [3] -0.215 | [4] -0.012 | [5] 0 | [6] 0.023 | [7] 0.019 | [8] 0.131 | [9] -0.035 | [10] -0.062 | [11] -0.123 | [12] -0.091 | [13] -0.043 | [14] 0.22 | [15] 0.011 | [16] -0.166 | [17] 0.093 | [18] 0.097 | [19] 0.023 | [20] -0.068

FDX1 (UniProt P10109)
inactive: [1] 0.178 | [2] -0.073 | [3] -0.009 | [4] -0.076 | [5] 0.005 | [6] 0.081 | [7] 0.035 | [8] -0.086 | [9] 0.029 | [10] 0.005 | [11] 0.035 | [12] 0.021 | [13] 0.027 | [14] -0.046 | [15] 0.02 | [16] 0.045 | [17] 0.017 | [18] -0.061 | [19] 0.041 | [20] -0.064

FHL1 isoform 4 (UniProt Q13642)
inactive: [1] -0.045 | [2] -0.144 | [3] -0.215 | [4] 0.047 | [5] 0.253 | [6] 0.085 | [8] -0.079 | [9] -0.001 | [10] 0.059 | [12] -0.074 | [13] -0.098 | [15] 0.156 | [16] 0.117 | [19] 0.398 | [20] -0.089

FECH isoform 2 (UniProt P22830)
inactive: [1] 0.191 | [2] -0.179 | [3] 0.349 | [4] 0.206 | [5] 0.162 | [6] 0.048 | [7] 0.429 | [8] 0.135 | [9] 0.172 | [10] 0.046 | [11] 0.408 | [12] 0.082 | [13] 0.129 | [14] 0.159 | [15] 0.426 | [17] -0.144 | [18] -0.098 | [20] 0.514
active: [16] -0.691

FAM91A1 (UniProt Q658Y4)
inactive: [1] 0.005 | [2] 0.019 | [3] 0.168 | [4] 0.082 | [5] 0.019 | [6] -0.017 | [7] -0.033 | [8] 0.069 | [9] -0.057 | [10] -0.152 | [11] 0.092 | [12] -0.025 | [13] -0.025 | [14] 0.076 | [15] -0.198 | [16] -0.041 | [17] 0 | [18] 0.134 | [20] 0.083

FAM222B (UniProt Q8WU58)
inactive: [1] 0.169 | [2] -0.166 | [3] 0.186 | [4] -0.125 | [5] -0.196 | [7] -0.271 | [8] 0.426 | [9] 0.077 | [10] -0.106 | [13] 0.04 | [14] 0.138 | [15] -0.011 | [16] 0.011 | [17] 0.017 | [20] 0.286

FGB (UniProt P02675)
inactive: [1] -0.047 | [2] -0.062 | [4] 0.12 | [5] 0.146 | [6] -0.031 | [7] -0.138 | [8] -0.019 | [9] 0.077 | [10] 0.132 | [12] 0.282 | [13] 0.078 | [14] -0.232 | [16] 0.09 | [17] 0.071 | [19] 0.233 | [20] -0.109

FANCI (UniProt Q9NVI1)
inactive: [1] 0.083 | [2] 0.026 | [3] 0.056 | [4] 0.062 | [5] 0.142 | [6] 0.008 | [7] 0.053 | [8] -0.019 | [9] -0.028 | [10] -0.006 | [11] -0.043 | [12] -0.082 | [13] -0.148 | [14] -0.008 | [15] -0.146 | [17] -0.136 | [18] 0.006 | [20] -0.098
active: [16] -0.377
